The record followed here is patent US7005419.

By UniProt entry, the sequences of proteins in these tests, tags left out. Where a name states a change or a piece, a line headed by the entry shows the natural chain unless it says otherwise.
UniProt P06493: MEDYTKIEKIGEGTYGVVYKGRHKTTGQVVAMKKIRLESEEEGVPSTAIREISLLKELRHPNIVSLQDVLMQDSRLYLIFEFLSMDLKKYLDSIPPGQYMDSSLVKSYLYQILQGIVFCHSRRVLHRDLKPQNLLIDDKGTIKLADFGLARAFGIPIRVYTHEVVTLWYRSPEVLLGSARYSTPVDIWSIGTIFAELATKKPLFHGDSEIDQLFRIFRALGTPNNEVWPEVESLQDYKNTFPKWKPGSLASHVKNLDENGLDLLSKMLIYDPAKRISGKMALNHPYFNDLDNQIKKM
UniProt P24522: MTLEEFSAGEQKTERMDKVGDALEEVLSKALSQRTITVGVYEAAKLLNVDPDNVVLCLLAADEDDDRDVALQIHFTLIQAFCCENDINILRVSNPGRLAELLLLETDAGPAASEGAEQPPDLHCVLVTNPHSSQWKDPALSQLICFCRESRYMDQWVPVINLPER

Assay [1] concerns the target Cdc2 (human) (UniProt P06493). As to the kind of experiment: GST pull-down from RKO cell lysate, anti-Cdc2 immunoblot. On the technique in general: Immunoblotting shows a protein as a band on a membrane.
The target in assay [2] is Cdc2 (human) (UniProt P06493). As to the kind of experiment: co-immunoprecipitation from transfected cells, immunoblot.

Results are given in words; binding and its absence hold for the method and conditions named. In cells and extracts the contact can be indirect. Some results given as binding are weak or reduced against the parent protein; the word gives no strength.

Take “glutathione-S-transferase (GST)/GADD45 fusion protein (from UniProt P24522 2-165)”: the binding entry in the assay with Cdc2 (human) [1] and with Cdc2 (human) [2] was “binds” throughout.
